Results: paper PMC10784507
No constants are given. Whether binding was seen depends on the method and setting. For part of these data: Binding seen in cells or lysates may run through a third protein. Some binding calls cover weakened binding; strength is not graded here.

Chains of the proteins cited; added tags and fusions are not shown. Residues count along the entry.
UniProt P31040, residues 43-664: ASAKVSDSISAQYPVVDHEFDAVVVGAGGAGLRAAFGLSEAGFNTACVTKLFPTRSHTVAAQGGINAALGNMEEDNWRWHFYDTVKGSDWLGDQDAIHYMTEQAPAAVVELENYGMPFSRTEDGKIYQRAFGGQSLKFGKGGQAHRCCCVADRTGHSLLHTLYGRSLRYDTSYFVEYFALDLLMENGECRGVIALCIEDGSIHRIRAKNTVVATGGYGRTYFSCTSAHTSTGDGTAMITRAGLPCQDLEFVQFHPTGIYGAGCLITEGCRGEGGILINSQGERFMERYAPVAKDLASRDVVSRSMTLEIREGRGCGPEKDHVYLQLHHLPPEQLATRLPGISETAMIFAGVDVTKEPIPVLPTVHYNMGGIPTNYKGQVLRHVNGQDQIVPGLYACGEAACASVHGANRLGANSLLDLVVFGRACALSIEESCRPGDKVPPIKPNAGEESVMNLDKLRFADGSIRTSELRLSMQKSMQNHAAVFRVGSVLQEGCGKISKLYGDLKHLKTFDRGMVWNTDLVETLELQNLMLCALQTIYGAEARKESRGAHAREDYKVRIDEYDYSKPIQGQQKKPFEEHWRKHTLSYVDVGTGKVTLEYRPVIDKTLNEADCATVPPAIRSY
UniProt Q5VUM1, residues 21-108: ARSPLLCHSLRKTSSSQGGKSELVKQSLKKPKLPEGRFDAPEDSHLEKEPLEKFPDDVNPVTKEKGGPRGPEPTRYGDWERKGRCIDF

Legend:
[1] = target: SDHA Myc-DDK-tagged (human) (UniProt P31040); test: co-IP; anti-FLAG IgG on protein A/G resin, RIPA lysates (750 µg) of hPheo1 sub-lines with SDHAF2 (parental, SDHAF4^rec) stably expressing SDHA-FLAG, overnight 4 °C; western blot for SDHAF4
[2] = target: SDHAF4 re-expressed from pCDH-SDHAF4 (human) (UniProt Q5VUM1); test: native gel or EMSA; native blue gel electrophoresis (4-16% gradient) of digitonin-solubilised mitochondria of hPheo1 parental, SDHAF4^KO36 and SDHAF4^rec cells, western blot with anti-SDHA, anti-SDHB, anti-SDHAF2, anti-SDHAF4
[3] = target: SDHA Myc-DDK-tagged (human) (UniProt P31040); test: condition: only in cells without SDHAF2 (SDHAF2^KO); co-IP; anti-FLAG IgG on protein A/G resin, RIPA lysates of hPheo1 sub-lines without SDHAF2 (SDHAF2^KO/SDHAF4^rec, SDHAF2^KO/SDHAF4^OE) stably expressing SDHA-FLAG; western blot for SDHAF4

SDHAF4 re-expressed from pCDH-SDHAF4 (from UniProt Q5VUM1 21-108)
binding [1]: binds | binding [2]: binds | binding [3]: no binding
